No constants are given. Whether binding was seen depends on the method and setting. Binding seen in cells or lysates may run through a third protein. A result given as binding can be weak or reduced; the word gives no strength. Where a sequence is shown, tags or fusion partners need not be part of it.

In the assay the target is T1, GST-SKAP (UniProt Q9Y448).
T1 sequence: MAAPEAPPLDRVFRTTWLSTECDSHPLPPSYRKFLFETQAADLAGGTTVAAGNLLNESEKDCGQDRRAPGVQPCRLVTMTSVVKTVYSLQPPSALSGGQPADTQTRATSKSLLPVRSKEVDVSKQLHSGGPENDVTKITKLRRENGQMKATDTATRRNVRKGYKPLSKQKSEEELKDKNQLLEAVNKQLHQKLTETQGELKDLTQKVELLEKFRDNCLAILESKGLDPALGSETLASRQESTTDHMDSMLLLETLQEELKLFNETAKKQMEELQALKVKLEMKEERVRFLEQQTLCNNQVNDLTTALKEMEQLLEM
Nature of the assay: pull-down; GST fusion protein-bound sepharose beads incubated 2 h at 4 °C with HEK293T cell lysates containing GFP-tagged proteins; PBS, 0.1% Triton X-100; anti-GFP blot; only the target purified.

“GFP-Kif2b N-terminus (deletion mutant) (human) (domain or fragment)”: the binding entry is listed as “binds”.
The result for “GFP-Kif2b C-terminus (deletion mutant) (human) (domain or fragment)” reads “binds”.

The values are drawn from article PMC5159797.
